# Laboratory results reported in patent publication US5196330.
# For at least one entry, the source does not settle the construct or the ends of the probe.
# Test system: PmeI restriction endonuclease (Pseudomonas mendocina NEB 698 (ATCC 55181))
# Assay: enzyme reaction in vitro
# Settings: blunt cleavage between 4th and 5th bases; 37 C, 30 min; Mg2+ present in extension reaction; purified native protein
sequence,measurement,value
GTTTAAAC (double strand),activity on this sequence,active
